Measurements published in the supplement of paper PMC11006884.
Only a part is listed here, and it is no random draw.

Chains of the proteins cited; added tags and fusions are not shown. Lines headed by an entry give the natural chain unless they say otherwise; changes in a name come on top.
UniProt Q15181: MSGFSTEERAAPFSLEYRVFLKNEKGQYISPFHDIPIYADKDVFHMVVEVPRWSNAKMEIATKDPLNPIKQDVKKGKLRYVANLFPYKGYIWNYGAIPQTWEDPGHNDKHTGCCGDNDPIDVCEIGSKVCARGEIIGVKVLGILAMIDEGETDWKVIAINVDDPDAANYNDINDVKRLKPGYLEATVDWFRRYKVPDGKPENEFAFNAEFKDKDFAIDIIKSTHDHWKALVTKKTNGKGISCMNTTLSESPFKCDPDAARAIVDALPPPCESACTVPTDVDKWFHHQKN
UniProt Q16342: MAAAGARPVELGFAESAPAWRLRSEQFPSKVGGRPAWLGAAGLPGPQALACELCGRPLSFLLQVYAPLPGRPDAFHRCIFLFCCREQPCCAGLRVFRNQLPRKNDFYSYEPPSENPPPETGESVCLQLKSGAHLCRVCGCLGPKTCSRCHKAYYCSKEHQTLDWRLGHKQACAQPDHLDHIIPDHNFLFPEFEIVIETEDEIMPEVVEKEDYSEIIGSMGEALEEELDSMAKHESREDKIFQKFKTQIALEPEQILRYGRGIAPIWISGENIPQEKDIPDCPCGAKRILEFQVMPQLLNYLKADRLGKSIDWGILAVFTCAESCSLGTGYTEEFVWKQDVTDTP
UniProt Q15154: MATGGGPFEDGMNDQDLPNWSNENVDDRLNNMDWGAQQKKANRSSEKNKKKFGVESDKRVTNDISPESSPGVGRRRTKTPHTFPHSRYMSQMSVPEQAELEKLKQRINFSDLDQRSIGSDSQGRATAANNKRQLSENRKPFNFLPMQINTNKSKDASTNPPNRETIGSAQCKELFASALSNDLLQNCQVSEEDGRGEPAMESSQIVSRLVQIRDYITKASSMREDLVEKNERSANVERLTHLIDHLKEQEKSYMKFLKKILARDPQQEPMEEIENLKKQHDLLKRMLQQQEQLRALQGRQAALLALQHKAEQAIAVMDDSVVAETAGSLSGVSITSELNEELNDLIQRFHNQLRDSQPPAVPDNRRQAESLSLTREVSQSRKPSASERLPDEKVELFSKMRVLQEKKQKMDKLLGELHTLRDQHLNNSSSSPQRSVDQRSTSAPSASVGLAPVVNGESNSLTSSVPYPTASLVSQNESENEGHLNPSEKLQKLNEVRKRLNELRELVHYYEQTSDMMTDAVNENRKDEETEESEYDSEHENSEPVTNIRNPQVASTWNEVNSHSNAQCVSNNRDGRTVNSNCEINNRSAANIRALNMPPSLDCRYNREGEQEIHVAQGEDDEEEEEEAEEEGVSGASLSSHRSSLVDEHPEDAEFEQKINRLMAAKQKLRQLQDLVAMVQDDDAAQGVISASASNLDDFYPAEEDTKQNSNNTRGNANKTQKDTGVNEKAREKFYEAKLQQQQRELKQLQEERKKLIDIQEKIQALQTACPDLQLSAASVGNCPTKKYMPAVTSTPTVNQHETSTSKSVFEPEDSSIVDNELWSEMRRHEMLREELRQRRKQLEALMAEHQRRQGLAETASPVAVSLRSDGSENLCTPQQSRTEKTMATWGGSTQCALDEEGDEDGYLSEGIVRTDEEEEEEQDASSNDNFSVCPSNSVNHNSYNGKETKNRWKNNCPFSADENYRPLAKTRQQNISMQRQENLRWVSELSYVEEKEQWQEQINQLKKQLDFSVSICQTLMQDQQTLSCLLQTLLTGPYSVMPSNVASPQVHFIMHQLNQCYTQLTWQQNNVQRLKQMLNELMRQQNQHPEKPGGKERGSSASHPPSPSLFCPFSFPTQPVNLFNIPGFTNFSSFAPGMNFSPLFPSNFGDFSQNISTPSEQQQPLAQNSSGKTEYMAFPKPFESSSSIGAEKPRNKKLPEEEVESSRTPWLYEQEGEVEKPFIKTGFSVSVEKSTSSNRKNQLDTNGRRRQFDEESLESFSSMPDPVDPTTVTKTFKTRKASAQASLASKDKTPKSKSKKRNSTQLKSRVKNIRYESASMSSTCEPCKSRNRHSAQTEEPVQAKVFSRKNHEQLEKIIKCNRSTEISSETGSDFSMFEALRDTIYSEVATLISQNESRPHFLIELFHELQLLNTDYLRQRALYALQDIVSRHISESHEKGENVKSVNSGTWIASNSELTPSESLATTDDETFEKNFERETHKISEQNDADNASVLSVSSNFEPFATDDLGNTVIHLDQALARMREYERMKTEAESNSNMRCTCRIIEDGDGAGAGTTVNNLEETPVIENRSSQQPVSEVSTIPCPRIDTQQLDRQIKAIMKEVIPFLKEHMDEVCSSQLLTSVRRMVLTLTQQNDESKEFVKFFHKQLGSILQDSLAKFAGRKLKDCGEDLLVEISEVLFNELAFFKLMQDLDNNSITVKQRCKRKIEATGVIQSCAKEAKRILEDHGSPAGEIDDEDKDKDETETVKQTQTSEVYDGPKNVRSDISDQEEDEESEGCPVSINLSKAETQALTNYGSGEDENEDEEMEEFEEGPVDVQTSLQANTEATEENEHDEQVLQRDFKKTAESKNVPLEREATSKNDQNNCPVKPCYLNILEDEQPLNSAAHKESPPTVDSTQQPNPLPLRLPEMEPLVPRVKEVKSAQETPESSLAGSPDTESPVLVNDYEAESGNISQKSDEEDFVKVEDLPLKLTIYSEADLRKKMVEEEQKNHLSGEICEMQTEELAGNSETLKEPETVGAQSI
UniProt Q15345: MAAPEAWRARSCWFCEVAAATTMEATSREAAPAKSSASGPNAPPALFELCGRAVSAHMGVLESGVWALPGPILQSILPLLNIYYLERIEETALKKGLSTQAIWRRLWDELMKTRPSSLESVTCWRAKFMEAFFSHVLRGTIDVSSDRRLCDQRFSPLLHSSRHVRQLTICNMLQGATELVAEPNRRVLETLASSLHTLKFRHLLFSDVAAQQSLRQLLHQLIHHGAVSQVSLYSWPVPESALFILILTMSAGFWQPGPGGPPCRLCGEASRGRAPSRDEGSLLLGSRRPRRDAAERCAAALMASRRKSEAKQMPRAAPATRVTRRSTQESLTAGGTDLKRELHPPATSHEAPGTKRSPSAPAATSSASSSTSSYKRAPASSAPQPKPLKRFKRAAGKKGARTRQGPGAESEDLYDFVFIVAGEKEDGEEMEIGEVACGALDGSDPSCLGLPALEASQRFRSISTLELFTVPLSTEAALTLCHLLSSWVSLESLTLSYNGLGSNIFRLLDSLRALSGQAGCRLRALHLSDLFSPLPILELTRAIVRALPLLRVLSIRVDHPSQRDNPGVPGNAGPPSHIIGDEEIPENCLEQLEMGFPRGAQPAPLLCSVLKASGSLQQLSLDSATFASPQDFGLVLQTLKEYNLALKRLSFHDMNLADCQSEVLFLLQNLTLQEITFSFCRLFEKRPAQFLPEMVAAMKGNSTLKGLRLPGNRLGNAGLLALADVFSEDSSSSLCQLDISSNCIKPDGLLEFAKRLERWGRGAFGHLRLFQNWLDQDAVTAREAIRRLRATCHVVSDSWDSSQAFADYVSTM
UniProt Q3B726, whole entry, looked up: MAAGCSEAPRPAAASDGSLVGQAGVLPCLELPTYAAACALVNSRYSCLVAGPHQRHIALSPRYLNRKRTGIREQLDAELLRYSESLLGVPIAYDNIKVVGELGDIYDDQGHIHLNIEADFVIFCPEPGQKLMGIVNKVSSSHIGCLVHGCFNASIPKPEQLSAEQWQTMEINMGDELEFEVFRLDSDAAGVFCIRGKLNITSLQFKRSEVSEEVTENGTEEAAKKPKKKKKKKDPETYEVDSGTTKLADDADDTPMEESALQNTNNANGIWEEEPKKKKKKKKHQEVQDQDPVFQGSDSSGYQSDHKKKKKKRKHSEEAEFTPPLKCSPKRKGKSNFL
UniProt Q15024, whole entry: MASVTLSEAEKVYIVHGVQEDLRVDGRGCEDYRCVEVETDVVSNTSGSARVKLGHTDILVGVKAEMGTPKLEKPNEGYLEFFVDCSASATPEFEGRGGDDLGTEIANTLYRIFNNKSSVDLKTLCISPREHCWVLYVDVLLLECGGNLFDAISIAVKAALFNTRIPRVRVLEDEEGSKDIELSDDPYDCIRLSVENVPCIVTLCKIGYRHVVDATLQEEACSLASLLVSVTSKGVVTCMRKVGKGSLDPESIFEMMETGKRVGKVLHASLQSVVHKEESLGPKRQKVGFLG
UniProt Q53EL6: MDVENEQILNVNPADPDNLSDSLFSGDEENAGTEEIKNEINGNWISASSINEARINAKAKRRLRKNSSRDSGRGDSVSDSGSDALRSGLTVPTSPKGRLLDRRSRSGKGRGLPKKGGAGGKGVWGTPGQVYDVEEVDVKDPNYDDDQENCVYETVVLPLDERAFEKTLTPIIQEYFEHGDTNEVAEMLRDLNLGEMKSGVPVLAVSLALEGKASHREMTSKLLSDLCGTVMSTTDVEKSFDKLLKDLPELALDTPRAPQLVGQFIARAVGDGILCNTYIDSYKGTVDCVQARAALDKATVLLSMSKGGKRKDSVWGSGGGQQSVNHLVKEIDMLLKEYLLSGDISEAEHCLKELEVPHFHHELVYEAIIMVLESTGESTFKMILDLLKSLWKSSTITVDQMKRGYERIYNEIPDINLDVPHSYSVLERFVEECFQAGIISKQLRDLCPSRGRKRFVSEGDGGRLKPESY
UniProt Q16543: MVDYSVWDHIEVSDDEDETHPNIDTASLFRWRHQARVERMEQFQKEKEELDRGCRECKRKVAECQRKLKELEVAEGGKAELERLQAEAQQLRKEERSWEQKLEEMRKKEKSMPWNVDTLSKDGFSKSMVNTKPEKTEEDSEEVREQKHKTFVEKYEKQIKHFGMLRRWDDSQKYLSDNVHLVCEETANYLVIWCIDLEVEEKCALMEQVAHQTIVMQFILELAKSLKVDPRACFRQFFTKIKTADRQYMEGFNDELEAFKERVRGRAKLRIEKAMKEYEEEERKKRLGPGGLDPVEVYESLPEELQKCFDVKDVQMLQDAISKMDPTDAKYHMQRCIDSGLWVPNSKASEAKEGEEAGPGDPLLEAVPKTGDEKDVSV
UniProt Q56VL3: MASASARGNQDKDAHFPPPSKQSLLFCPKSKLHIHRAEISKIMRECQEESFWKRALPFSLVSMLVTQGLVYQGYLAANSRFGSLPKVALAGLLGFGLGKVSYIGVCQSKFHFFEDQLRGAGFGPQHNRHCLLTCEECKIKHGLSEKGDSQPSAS
UniProt Q15075: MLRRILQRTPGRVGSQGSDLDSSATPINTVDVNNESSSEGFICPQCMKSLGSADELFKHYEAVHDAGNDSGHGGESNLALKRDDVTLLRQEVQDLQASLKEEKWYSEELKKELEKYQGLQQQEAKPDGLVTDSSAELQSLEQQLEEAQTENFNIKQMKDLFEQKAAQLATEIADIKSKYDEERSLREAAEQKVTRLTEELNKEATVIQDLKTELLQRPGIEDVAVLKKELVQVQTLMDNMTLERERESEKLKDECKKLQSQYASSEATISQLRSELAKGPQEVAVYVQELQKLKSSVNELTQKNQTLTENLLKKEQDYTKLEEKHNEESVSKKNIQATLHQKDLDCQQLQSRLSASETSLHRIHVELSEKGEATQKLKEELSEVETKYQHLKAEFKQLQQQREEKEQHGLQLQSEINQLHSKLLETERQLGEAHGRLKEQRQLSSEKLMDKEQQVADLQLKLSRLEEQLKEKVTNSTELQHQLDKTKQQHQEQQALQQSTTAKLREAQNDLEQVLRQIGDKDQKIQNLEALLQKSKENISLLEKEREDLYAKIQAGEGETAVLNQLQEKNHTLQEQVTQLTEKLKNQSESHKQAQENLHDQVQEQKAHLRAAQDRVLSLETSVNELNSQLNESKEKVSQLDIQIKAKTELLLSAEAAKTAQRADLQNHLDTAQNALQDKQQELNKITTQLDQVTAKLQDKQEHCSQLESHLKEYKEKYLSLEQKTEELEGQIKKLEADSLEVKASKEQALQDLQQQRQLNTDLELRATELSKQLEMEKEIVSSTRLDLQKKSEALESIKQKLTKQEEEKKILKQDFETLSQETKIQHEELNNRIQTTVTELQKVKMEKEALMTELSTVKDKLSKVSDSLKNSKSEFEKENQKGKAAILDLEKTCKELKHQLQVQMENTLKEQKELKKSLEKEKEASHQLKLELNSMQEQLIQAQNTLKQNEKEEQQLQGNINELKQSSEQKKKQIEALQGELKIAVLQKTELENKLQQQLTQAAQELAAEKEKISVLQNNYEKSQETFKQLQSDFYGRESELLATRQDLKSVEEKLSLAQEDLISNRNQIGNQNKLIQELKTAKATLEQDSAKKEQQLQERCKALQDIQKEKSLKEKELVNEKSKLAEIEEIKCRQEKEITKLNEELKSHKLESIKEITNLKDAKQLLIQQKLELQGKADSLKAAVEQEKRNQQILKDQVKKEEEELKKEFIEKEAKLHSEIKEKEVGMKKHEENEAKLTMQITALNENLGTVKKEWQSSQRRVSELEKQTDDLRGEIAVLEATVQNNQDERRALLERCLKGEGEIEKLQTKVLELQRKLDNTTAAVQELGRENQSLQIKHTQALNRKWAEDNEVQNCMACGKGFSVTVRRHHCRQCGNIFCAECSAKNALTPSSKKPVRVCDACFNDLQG

Compound: COC(=O)C#Cc1ccccc1 [methyl 3-phenylpropiolate]
Assay: log2 ratio of iodoacetamide-alkyne labeling of the cysteine site, DMSO over compound (competition); higher = stronger covalent engagement of the cysteine by the compound, active = 1 or more
Settings: 500 µM; treatment time 1 h; system: HEK293T cell lysate
How it was run: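 HEK293T lysate (2 mg/mL) was treated with DMSO or electrophile (500 µM, 1 h, ambient temperature), then iodoacetamide alkyne (1 h), clicked to sCIP-TMT reagents, pooled, trypsin-digested overnight at 37 °C, streptavidin-enriched and acid-eluted. Peptides were run on Orbitrap Eclipse LC-MS/MS with FAIMS and quantified in FragPipe. The log2 competition ratio per cysteine is mean control-channel over mean compound-channel reporter intensity. Duplicate channels and three replicates were used, and cysteines quantified in only one replicate were excluded.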

Target	log2 ratio of iodoacetamide-alkyne labeling
PPA1 C114 (UniProt Q15181)	inactive: -0.223
PDS5A C93 (UniProt Q29RF7)	inactive: -0.0722
UniProt Q567V2_C198	inactive: 0.342
PDCD2 C125 (UniProt Q16342)	inactive: 0.149
UniProt Q15149_C3295	inactive: 0.679
PCM1 C957 (UniProt Q15154)	active: 2.43
LRRC41 C297 (UniProt Q15345)	inactive: 0.692
TWISTNB C5 (UniProt Q3B726)	inactive: 0.889
EXOSC7 C85 (UniProt Q15024)	inactive: -0.0747
PDCD4 C227 (UniProt Q53EL6)	inactive: 0.105
CDC37 C308 (UniProt Q16543)	inactive: 0.146
UBE2S C118 (UniProt Q16763)	inactive: 0.158
OCIAD2 C27 (UniProt Q56VL3)	inactive: 0.644
GEN1 C668 (UniProt Q17RS7)	inactive: 0.0186
EEA1 C1405 (UniProt Q15075)	inactive: 0.0817

Another view of part of the listing above.
Target | log2 ratio of iodoacetamide-alkyne labeling
GEN1 C668 (UniProt Q17RS7) | inactive: 0.0186
EEA1 C1405 (UniProt Q15075) | inactive: 0.0817
